± gives the standard error. The uncertainty is large for many entries.

Sequences and labels used below:
B1: glmS ribozyme (parent)
chain: AUAAAAGCGCCAGAACUACAGAAAUGUAGUUGACGAGGAGGAGGUUUAUCGAAUUUUCGGCGGAUGCCUCCAAA

One data set covers variants of B1. The data set is described as follows: self-cleavage kobs at 640 uM GlcN6P; higher = faster cleavage; RNA array. The note with it: with glucosamine-6-phosphate. Put shortly:
(§1)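 Glucosamine-6-phosphate in HEPES/KCl/Mg(OAc)2 buffer, at 40 μM to 10 mM, was flowed over barcoded ribozyme variants transcribed in situ by E. coli RNA polymerase on sequenced MiSeq chips. Tracking was through a hybridised Cy3 probe at 37 °C. kobs, kcat and KM came from exponential decay fits and weighted Michaelis–Menten fits of normalised per-tile medians.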
In the case of G38U U47G C71U, the “self-cleavage kobs at 640 uM GlcN6P” value worked out at 4.22e-05 ± 3.3e-05 s⁻¹.
Turning to A12U A64G C67G, the “self-cleavage kobs at 640 uM GlcN6P” value is 1.35e-05 ± 1.3e-05 s⁻¹.
On the same count and under the same terms, with U30G A48U the figure was 2.45e-05 ± 1.3e-05 s⁻¹.
In the case of U49G C58U C70U C71U, the “self-cleavage kobs at 640 uM GlcN6P” value was 2.96e-05 ± 2.9e-05 s⁻¹.
Regarding A12C U46C C70A, the “self-cleavage kobs at 640 uM GlcN6P” value worked out at 2.6e-05 ± 1.7e-05 s⁻¹.
With U30C A52G, the “self-cleavage kobs at 640 uM GlcN6P” value is 1.99e-05 ± 2e-05 s⁻¹.
As for C50A C68A, the “self-cleavage kobs at 640 uM GlcN6P” value turned out to be 3.4e-05 ± 2.2e-05 s⁻¹.
Turning to A39U A48U C67G, the “self-cleavage kobs at 640 uM GlcN6P” value worked out at 3.07e-05 ± 2.9e-05 s⁻¹.
As for C16A U57A C67A, the “self-cleavage kobs at 640 uM GlcN6P” value was determined as 3.21e-05 ± 2.3e-05 s⁻¹.
Still for that read-out and setting: with G51U C68A the figure was 3.03e-05 ± 1.6e-05 s⁻¹; with U31G G59A C70G, 3.54e-05 ± 1.9e-05 s⁻¹; with G37A A39U U65C, 1.85e-05 ± 1.7e-05 s⁻¹.
G44U A53C: the “self-cleavage kobs at 640 uM GlcN6P” value was determined as 2.81e-05 ± 1.4e-05 s⁻¹.
G13U U55G C67A: the “self-cleavage kobs at 640 uM GlcN6P” value amounted to 3.1e-05 ± 1.8e-05 s⁻¹.
As for A12C U55A C58A, the “self-cleavage kobs at 640 uM GlcN6P” value is 2.08e-05 ± 1.3e-05 s⁻¹.
With G13U C58U, the “self-cleavage kobs at 640 uM GlcN6P” value stood at 3.53e-05 ± 2e-05 s⁻¹.
In the case of C50U U54G, the “self-cleavage kobs at 640 uM GlcN6P” value stood at 1.84e-05 ± 1.8e-05 s⁻¹.
With A14G A53C U65C C70U, the “self-cleavage kobs at 640 uM GlcN6P” value was 2.61e-05 ± 2.6e-05 s⁻¹.
On the same count and under the same terms, next, A15G A33C U45A: 3.15e-05 ± 1.7e-05 s⁻¹.
Take G13C C16G U69A C70G: the “self-cleavage kobs at 640 uM GlcN6P” value is 2.63e-05 ± 2.4e-05 s⁻¹.
A12G U31A U45A: the “self-cleavage kobs at 640 uM GlcN6P” value was determined as 1.63e-05 ± 1.4e-05 s⁻¹.
Regarding A48U C50G C67U, the “self-cleavage kobs at 640 uM GlcN6P” value was found to be 0.000257 ± 0.00017 s⁻¹.
Same read-out and setting: next, C16U A42U U54G: 2.83e-05 ± 1.8e-05 s⁻¹; C16G U31A A39U U45G: 4.95e-05 ± 3.3e-05 s⁻¹.
Same read-out and setting: next, G38C C70A: 1.73e-05 ± 1.6e-05 s⁻¹; G40U G41A C67A C70U: 2.14e-05 ± 1.3e-05 s⁻¹.
As for G41C U65A, the “self-cleavage kobs at 640 uM GlcN6P” value was determined as 1.69e-05 ± 1.2e-05 s⁻¹.
Turning to C11G A14U C70A, the “self-cleavage kobs at 640 uM GlcN6P” value came to 4.19e-05 ± 2.5e-05 s⁻¹.
Take U47G A48U U65G: the “self-cleavage kobs at 640 uM GlcN6P” value was 2.77e-05 ± 1.6e-05 s⁻¹.
Regarding G44U U56A, the “self-cleavage kobs at 640 uM GlcN6P” value stood at 1.9e-05 ± 9.8e-06 s⁻¹.
Regarding A48U U69A, the “self-cleavage kobs at 640 uM GlcN6P” value was determined as 3.25e-05 ± 1.9e-05 s⁻¹.
As to A12G C16U A53C, the “self-cleavage kobs at 640 uM GlcN6P” value came out at 3.05e-05 ± 1.9e-05 s⁻¹.
As to U31G A48C, the “self-cleavage kobs at 640 uM GlcN6P” value came out at 1.83e-05 ± 1.6e-05 s⁻¹.
As for A52C C70A, the “self-cleavage kobs at 640 uM GlcN6P” value was 1.93e-05 ± 1.6e-05 s⁻¹.
For the variant A52C C70U, the “self-cleavage kobs at 640 uM GlcN6P” value amounted to 2.05e-05 ± 1.7e-05 s⁻¹.
Consider U31A G38U C67A, for which the “self-cleavage kobs at 640 uM GlcN6P” value was 2.72e-05 ± 2.1e-05 s⁻¹.
On to U31C G38U C70G, for which the “self-cleavage kobs at 640 uM GlcN6P” value came to 7.51e-05 ± 4.6e-05 s⁻¹.

The variants in a further data set derive from B1. Briefly: self-cleavage kobs at 2500 uM GlcN6P; higher = faster cleavage; RNA array. The conditions noted are these: with glucosamine-6-phosphate. Put shortly:
as §1
For the variant G38U U47G C71U, the “self-cleavage kobs at 2500 uM GlcN6P” value came to 3.84e-05 ± 2.7e-05 s⁻¹.
As for C16A U57A C67A, the “self-cleavage kobs at 2500 uM GlcN6P” value came out at 2.86e-05 ± 2.6e-05 s⁻¹.
Turning to G13U C58U, the “self-cleavage kobs at 2500 uM GlcN6P” value came to 1.29e-05 ± 1.2e-05 s⁻¹.
In the case of G38C C70A, the “self-cleavage kobs at 2500 uM GlcN6P” value was found to be 1.77e-05 ± 1.7e-05 s⁻¹.

The variants in a further data set derive from B1. The data set is described as follows: self-cleavage kobs at 10000 uM GlcN6P; higher = faster cleavage; RNA array. The conditions noted are these: with glucosamine-6-phosphate. Put shortly: as §1
Turning to U30C A52G, the “self-cleavage kobs at 10000 uM GlcN6P” value came to 1.59e-05 ± 1.4e-05 s⁻¹.
Still for that read-out and setting: next, C50U U54G: 1.88e-05 ± 1.2e-05 s⁻¹.
With A48U C50G C67U, the “self-cleavage kobs at 10000 uM GlcN6P” value came to 2.74e-05 ± 1.9e-05 s⁻¹.

Another data set covers variants of B1. Briefly: self-cleavage kobs at 160 uM GlcN6P; higher = faster cleavage; RNA array. The conditions noted are these: with glucosamine-6-phosphate. Put shortly:
as §1
Take G51U C68A: the “self-cleavage kobs at 160 uM GlcN6P” value is 2.24e-05 ± 1.6e-05 s⁻¹.
On to C11G A14U C70A, for which the “self-cleavage kobs at 160 uM GlcN6P” value was determined as 3.35e-05 ± 3e-05 s⁻¹.
Turning to A48U U69A, the “self-cleavage kobs at 160 uM GlcN6P” value amounted to 4.15e-05 ± 2.6e-05 s⁻¹.

For the origin of these results see the supplement of paper PMC7125110.
